Data: patent publication US20030073647A1 (priority 2001, published 2003)
Like-named read-outs stand apart in the source and are kept apart here.

Columns and labels:
[1] = for water content retained at moderate humidity: 10%-80% RH, 4-scan DMSG; for water content of the material: DMSG, at the start of the run, sample as received; for moisture sorbed at 80% RH: material made amorphous by drying to 0% RH
Protocol: Approximately 10 mg samples were used in the balance, samples were run as received. The humidity was set at ambient conditions on the day analysis began. […] The scan rate was 3% RH/step. The mass was measured every two minutes and an equilibrium window of 5 points within 0.001 mg. […] The Visual Basic program dmsgscn2.exe was used to control the data collection and export the information to an Excel spreadsheet.
(§1) The humidity was set at ambient conditions on the day analysis began. […] The mass was measured every two minutes and an equilibrium window of 5 points within 0.001 mg.
as §1

[2] = trituration in aqueous media, or stressed humidity conditions

Row | SMILES | moisture sorbed ([1]; first scan, from 70% RH to 90% RH, 25° C.) | water content retained at moderate humidity [1] | water content of the material [1] | moisture sorbed at 80% RH ([1]; second scan) | solid form conversion [2] | water content retained at moderate humidity ([1]; listed as Form m) | water content of the material ([1]; listed as Form m) | moisture content lost ([1]; first scan, from ambient down to about 6% RH) | moisture sorbed at 90% RH ([1]; second scan, crystals at 90% RH)
1 | CCC[C@@H]1C[C@@H](C(=O)NC(C(C)Cl)C2OC(SC)C(O)C(O)C2O)N(C)C1 (stereo partly shown) [Form I, clindamycin free base] | about 2% | – | – | – | – | – | – | – | –
2 | CCC[C@@H]1C[C@@H](C(=O)NC(C(C)Cl)C2OC(SC)C(O)C(O)C2O)N(C)C1 (stereo partly shown) [Form II, clindamycin free base] | – | about 2% | approximately 2% | approximately 2% | convert to Form I | – | – | – | –
3 | CCC[C@@H]1C[C@@H](C(=O)NC(C(C)Cl)C2OC(SC)C(O)C(O)C2O)N(C)C1 (stereo partly shown) [Form III, clindamycin free base] | – | – | – | about 6% | – | about 4.5% | approximately 4.5% | about 1.5% | about 6%
